Data source: PubChem BioAssay AID1259301 (Sanger Institute, 2017)
Screen: 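Kinases whose silencing adds to BYL719, cetuximab or trametinib effects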 (secondary rescreen of primary hits using four separate siRNAs per gene). Cells: LS180 human colorectal cancer cells. Knock-down reagent: single siRNA against human genes. Treatment: anchor drug BYL719 at 1 µM, cetuximab at 5 µg/ml or trametinib at 10 nM, each against a DMSO vehicle arm. Measurement: 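Replicate-averaged survival as a fraction of the non-targeting pool 2 control, and per-drug synergy scores measured relative to the anchor drug on its own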. Reading the numbers: synergy score with BYL719 and synergy score with cetuximab and synergy score with trametinib: higher = stronger synergistic (synthetic lethal) killing. Hit rule: 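Hit if synergy exceeds 0.10 with BYL719, cetuximab or trametinib, any single drug sufficing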. Meaning of the calls: active = synergy with at least one drug; inactive = no synergy with any drug.
Shown is an unselected part of 160 reagents. In the full data, 67 (42%) were called active. 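Calls rest on synergy in any drug arm, not on siRNA-alone viability; rescreen tested four distinct siRNAs for each gene.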 Entries without a mark were called inactive. The numbers tell different reagents against one gene apart. Not all columns of the deposit are shown. No sequences are given here. The record does not give: the amount of reagent, the time to read-out.

Target gene | reagent no. | synergy score with BYL719 | synergy score with cetuximab | synergy score with trametinib
SF3B1 | 1 | -0.126 | -0.0857 | -0.0827
SF3B1 | 2 | -0.0355 | 0.01 | 0.00283
SF3B1 | 3 | -0.123 | -0.167 | -0.0324
SF3B1 | 4 | -0.0519 | 0.00186 | -0.132
PRAG1 | 1 | 0.099 | -0.182 | 0.0376
PRAG1 | 2 | 0.424 (active) | 0.179 | 0.212
PRAG1 | 3 | -0.0104 | -0.0142 | 0.0304
PRAG1 | 4 | -0.082 | 0.044 | -0.0718
CRIM1 | 1 | 0.0593 | -0.0557 | -0.0282
CRIM1 | 2 | -0.0347 | -0.0683 | 0.0742
CRIM1 | 3 | 0.192 (active) | 0.113 | 0.17
CRIM1 | 4 | -0.00171 (active) | -0.135 | 0.108
CDKN2D | 1 | -0.276 | -0.0477 | -0.00195
CDKN2D | 2 | -0.00243 (active) | 0.141 | 0.17
CDKN2D | 3 | -0.19 (active) | 0.103 | 0.214
CDKN2D | 4 | -0.0236 (active) | 0.0864 | 0.101
NR2F2 | 1 | -0.068 (active) | -0.119 | 0.135
NR2F2 | 2 | 0.064 | 0.0916 | -0.0107
NR2F2 | 3 | -0.00996 (active) | 0.201 | 0.113
NR2F2 | 4 | -0.121 (active) | 0.0911 | 0.175
CDK6 | 1 | 0.0552 | -0.0577 | 0.0386
CDK6 | 2 | -0.0184 (active) | 0.0717 | 0.1
CDK6 | 3 | 0.143 (active) | 0.0731 | 0.277
CDK6 | 4 | -0.0388 (active) | 0.00214 | 0.125
GRK5 | 1 | -0.144 (active) | 0.03 | 0.264
GRK5 | 2 | 0.053 (active) | 0.27 | 0.297
GRK5 | 3 | 0.157 (active) | 0.12 | 0.211
GRK5 | 4 | 0.0573 | 0.0899 | 0.0737
KCNH8 | 1 | -0.13 | -0.0566 | -0.0289
KCNH8 | 2 | 0.0637 (active) | 0.123 | 0.0975
KCNH8 | 3 | -0.152 | 0 | -0.0476
KCNH8 | 4 | -0.155 | -0.0271 | 0.0185
PLK1 | 1 | -0.0688 | -0.0349 | -0.0344
PLK1 | 2 | -0.146 | -0.0873 | -0.106
PLK1 | 3 | -0.0517 | -0.0203 | -0.0547
PLK1 | 4 | -0.052 | -0.0487 | -0.0155
AK2 | 1 | -0.0717 (active) | 0.139 | 0.107
AK2 | 2 | -0.169 | -0.136 | -0.207
AK2 | 3 | -0.177 (active) | -0.0267 | 0.15
AK2 | 4 | -0.321 | -0.0244 | 0.053
IKBKB | 1 | -0.19 | -0.143 | -0.0855
IKBKB | 2 | -0.0789 | -0.0282 | 0.0029
IKBKB | 3 | -0.163 | -0.00706 | 0.00927
IKBKB | 4 | -0.108 | 0.0739 | -0.0437
EPHA6 | 1 | -0.0193 | 0.0388 | -0.00427
EPHA6 | 2 | -0.076 | 0.0159 | -0.0655
EPHA6 | 3 | -0.0228 | 0.0268 | -0.00285
EPHA6 | 4 | -0.183 | -0.222 | -0.0255
MAPK4 | 1 | -0.0448 | 0.0492 | 0.0767
MAPK4 | 2 | 0.0647 | -0.0806 | 0.0654
MAPK4 | 3 | -0.0745 | -0.106 | 0.0459
MAPK4 | 4 | -0.0668 | -0.0251 | -0.0332
IRAK1 | 1 | 0.0229 (active) | -0.113 | 0.242
IRAK1 | 2 | 0.0513 | -0.0374 | -0.0912
IRAK1 | 3 | -0.0502 | -0.14 | -0.0104
IRAK1 | 4 | 0.394 (active) | -0.0163 | -0.293
MAPKAPK2 | 1 | 0.139 (active) | -0.14 | 0.0525
MAPKAPK2 | 2 | -0.0183 | -0.26 | 0.0169
MAPKAPK2 | 3 | -0.0423 | -0.0745 | 0.0259
MAPKAPK2 | 4 | 0.117 (active) | 0.0113 | 0.211
CSNK2A2 | 1 | 0.102 (active) | -0.188 | 0.252
CSNK2A2 | 2 | 0.144 (active) | 0.0944 | 0.0958
CSNK2A2 | 3 | -0.172 | -0.0071 | 0.0753
CSNK2A2 | 4 | -0.0422 | -0.023 | 0.000601
PFKFB3 | 1 | -0.0915 | -0.00866 | 0.0198
PFKFB3 | 2 | 0.0682 (active) | -0.0297 | 0.172
PFKFB3 | 3 | -0.123 | 0.00616 | -0.0179
PFKFB3 | 4 | -0.0914 (active) | -0.0838 | 0.115
CHD4 | 1 | 0.0773 (active) | -0.047 | 0.15
CHD4 | 2 | -0.0774 (active) | 0.12 | 0.103
CHD4 | 3 | 0.0266 (active) | 0.117 | 0.113
CHD4 | 4 | 0.0148 (active) | 0.197 | 0.125
ACVR1 | 1 | -0.0737 (active) | -0.03 | 0.104
ACVR1 | 2 | -0.0316 (active) | 0.0696 | 0.165
ACVR1 | 3 | -0.155 (active) | -0.00675 | 0.228
ACVR1 | 4 | -0.0808 (active) | -0.0459 | 0.225

5 successive records from above:
Target gene | reagent no. | synergy score with BYL719 | synergy score with cetuximab | synergy score with trametinib
IKBKB | 4 | -0.108 | 0.0739 | -0.0437
EPHA6 | 1 | -0.0193 | 0.0388 | -0.00427
EPHA6 | 2 | -0.076 | 0.0159 | -0.0655
EPHA6 | 3 | -0.0228 | 0.0268 | -0.00285
EPHA6 | 4 | -0.183 | -0.222 | -0.0255
